# Measurements published in the supplement of paper PMC11348887.
# Counter-ions that a name gives are not always drawn. This is one part of the list. Small differences around the control level are noise.
# Columns and labels:
# Details in all cases: 5 µM; treatment: days 7-14 after plating, readout day 21
# [1] = system: hPSC-derived cortical neurons (WA09); assay: nucleus area z-score vs screen plate; higher = larger nuclei (more mature)
# [2] = system: hPSC-derived cortical neurons (WA09); assay: total neurite length per nucleus (MAP2) z-score; higher = more neurite growth
# [3] = system: hPSC-derived cortical neurons (WA09); assay: nucleus roundness z-score vs screen plate; higher = rounder nuclei (more mature)
# [4] = system: hPSC-derived cortical neurons (WA09); assay: KCl-induced FOS+/EGR-1+ double-positive nuclei fraction z-score (KCl minus unstimulated); higher = stronger activity-induced IEG response
Structure (SMILES),nucleus area z-score [1],total neurite length per nucleus (z-score) [2],nucleus roundness z-score [3],KCl-induced FOS+/EGR-1+ double-positive nuclei fraction z-score [4]
C[C@]12CCC(=O)C(O)=C1CC[C@@H]1[C@@H]2CC[C@]2(C)C(=O)CC[C@@H]12 [Formestane],0.585,0.349,0.00687,1.08
C1=C2CCCN[C@H]2[C@@H]2C[C@H]1[C@H]1CCCCN1C2 [Aloperine],-0.739,0.42,0.479,0.0226
CC[C@@H](C(N)=O)N1CCCC1=O [Levetiracetam],-0.458,0.544,0.329,0.4
CC(=O)Nc1ccc(Cc2ccc(NC(C)=O)cc2)cc1,0.287,-0.111,-0.0295,0.377
CCCN1C[C@H](CSC)C[C@@H]2c3cccc4[nH]cc(c34)C[C@H]21 [Pergolide mesylate],-0.917,-1.02,-0.0535,0.162
O=c1[nH]c2ccccc2n1CCCN1CCC(n2c(=O)[nH]c3cc(Cl)ccc32)CC1 [Domperidone],0.05,-0.0622,0.127,2.54
CN1c2ccccc2C(NCCCCCCC(=O)O)c2ccc(Cl)cc2S1(=O)=O (centres undefined) [Tianeptine sodium],1.8,2.92,0.359,-0.325
C[C@]12CC[C@H]3[C@@H](CC[C@@]45O[C@@H]4C(O)=C(C#N)C[C@]35C)[C@@H]1CC[C@@H]2O [Trilostane],0.00479,1.18,-0.383,-0.173
O=C(Oc1ccc([N+](=O)[O-])cc1)N1CCC(C(O)(c2ccc3c(c2)OCO3)c2ccc3c(c2)OCO3)CC1,-0.0244,0.462,0.332,0.652
Cn1cc(C2=C(c3cn(C4CCN(Cc5ccccn5)CC4)c4ccccc34)C(=O)NC2=O)c2ccccc21,0.348,-0.232,-0.55,0.75
NC(=O)CN1CCCC1=O [Piracetam],0.776,0.833,1.47,-0.306
NC[C@H](CC(=O)O)c1ccc(Cl)cc1 [(R)-baclofen],2.2,-2.7,-3.29,-0.41
O=c1cccc2n1C[C@@H]1CNC[C@H]2C1 [Cytisine],1.82,-1.88,-1.39,-1.09
NCCc1ccc(S(=O)(=O)F)cc1,0.206,-0.482,-0.93,-0.000635
CC(=O)O[C@H]1C[C@@H]2CC[C@@H]3[C@H](CC[C@@]4(C)[C@H]3C[C@H]([N+]3(C)CCCCC3)[C@@H]4OC(C)=O)[C@@]2(C)C[C@@H]1[N+]1(C)CCCCC1 [Pancuronium dibromide],0.236,-0.0267,-0.475,-0.294
c1ccc2c(c1)sc1ccccc12 [Dibenzothiophene],-0.385,-0.24,-0.0499,0.806
CC(NC(C)(C)C)C(=O)c1cccc(Cl)c1 (centres undefined) [Amfebutamone HCl],-0.597,-1.55,-2.56,-0.734
Cc1cc(C(C#N)c2ccc(Cl)cc2)c(Cl)cc1NC(=O)c1cc(I)cc(I)c1O (centres undefined) [Closantel],0.445,-0.988,-0.662,-1.02
Cc1sc2c(c1C)C(c1ccc(Cl)cc1)=N[C@@H](CC(=O)Nc1ccc(O)cc1)c1nnc(C)n1-2,-5.68,-2.53,-5.28,-1.89
NCCc1c[nH]c2ccc(O)cc12 [Serotonin HCl],0.423,-0.0255,0.934,0.578
Cc1ccccc1-n1c(Cn2ncc3c(N)ncnc32)nc2cccc(C)c2c1=O,1.4,0.902,-0.761,0.0164

Structure (SMILES),nucleus area z-score [1],total neurite length per nucleus (z-score) [2],nucleus roundness z-score [3],KCl-induced FOS+/EGR-1+ double-positive nuclei fraction z-score [4]
COc1ccc(N(C(=O)Oc2c(C)cccc2C)c2ccnc(Nc3ccc(N4CCN(C)CC4)cc3)n2)c(OC)c1,0.537,1.3,0.222,-0.375
OC(c1ccccc1)(c1ccccc1)C1CCNCC1 [Azacyclonol],-8.52,-4.53,-7.19,-0.0867
CN(C)CCc1ccc(O)cc1 [Hordenine],0.154,-0.041,-0.711,-0.435
C=CCN1CC[C@]23c4c5ccc(O)c4O[C@H]2C(=O)CC[C@@]3(O)[C@H]1C5 [Naloxone HCl],0.104,0.157,0.864,0.342
CNCC(O)c1ccc(O)cc1 (centres undefined) [Synephrine HCl],0.799,1.95,1.08,1.49
Fc1cc(F)c2c(c1)[C@H]1C=CC[C@H]1C(c1cccnc1)N2 (some centres undefined) [Golgicide A],-4.77,-0.644,-6.98,-0.213
O=C1CC[C@@]2(O)[C@H]3Cc4ccc(O)c5c4[C@@]2(CCN3CC2CC2)[C@H]1O5 [Naltrexone HCl],-0.824,0.3,-0.191,-0.0799
NCC(=O)O.[C-]#[O+].[C-]#[O+].[C-]#[O+].[Cl][Ru],1.44,0.262,-0.0913,0.0679
O=c1[nH]c2ccc(Cl)cc2c(N[C@@H]2CN3CCC2CC3)c1-c1nc2ccccc2[nH]1,-13.8,-5.53,-3.5,5.21
Cc1cccc(C)c1NC1=NCCCS1 [Xylazine HCl],-0.00202,1.07,1.36,1.42
c1cc2c(cc1[C@H]1OC[C@H]3[C@@H]1CO[C@@H]3c1ccc3c(c1)OCO3)OCO2 [Sesamin],0.0273,-0.17,-0.349,0.912
CCC1(c2ccc(N)cc2)CCC(=O)NC1=O (centres undefined) [Aminoglutethimide],1.03,0.15,0.159,2.03
CN1[C@@H]2CC[C@H]1C[C@@H](OC(=O)C(CO)c1ccccc1)C2 (some centres undefined) [Atropine],-1.28,0.0538,1.27,0.4
C[N+]1(C)[C@@H]2C[C@@H](OC(=O)[C@H](CO)c3ccccc3)C[C@H]1[C@@H]1O[C@@H]12 [Methscopolamine],1.12,-0.532,0.167,0.381
O.O.O.O=C([O-])C1[O][Sb]2[O]C(=O)C([O]2)C(C(=O)[O-])[O][Sb]2[O]C(=O)C1[O]2.[K+].[K+] (centres undefined) [Antimonyl potassium tartrate trihydrate],-11.5,-5.24,-7.07,-0.642
NCC1(CC(=O)O)CCCCC1 [Gabapentin],2.93,-0.619,-0.185,-0.372
O=C(O[C@H]1C[C@H]2CC[C@@H](C1)[N+]21CCCC1)C(O)(c1ccccc1)c1ccccc1 [Trospium chloride],1.37,-0.168,-0.518,-0.439
C[N+](C)(C)CCCCCCCCCC[N+](C)(C)C [Decamethonium Bromide],0.285,0.553,0.277,0.378
CCC1=C[C@H]2CN3CCc4c([nH]c5ccccc45)[C@](C(=O)OC)(C2)[C@H]13 [Catharanthine],-0.747,-0.223,-1.31,-0.739
CCC1(c2cccc(O)c2)CCCCN(C)C1 (centres undefined) [Meptazinol HCl],-0.673,-0.183,-0.308,0.265
O=P1(N(CCCl)CCCl)NCCCO1 (centres undefined) [Cyclophosphamide Monohydrate],1.3,-1.32,0.128,0.102

Structure (SMILES),nucleus area z-score [1],total neurite length per nucleus (z-score) [2],nucleus roundness z-score [3],KCl-induced FOS+/EGR-1+ double-positive nuclei fraction z-score [4]
CN(C)C(=O)Oc1cc(OC(=O)N(C)C)cc(C(O)CNC(C)(C)C)c1 (centres undefined) [Bambuterol HCl],0.136,0.223,-0.372,-0.0154
CCCN1CCO[C@@H]2c3cc(O)ccc3OC[C@H]21,0.947,0.405,0.56,0.838
COC(=O)[C@@H](N)CCCNC(=N)N[N+](=O)[O-],0.558,-0.499,-1.22,-0.253
C=C1CC[C@@]2(O)[C@H]3Cc4ccc(O)c5c4[C@@]2(CCN3CC2CC2)[C@H]1O5 [Nalmefene HCl],0.0976,0.487,0.111,0.817
O=[N+]([O-])O[C@@H]1CO[C@H]2[C@@H]1OC[C@@H]2O [Isosorbide Mononitrate],0.374,0.00495,-0.0915,0.27
CCOc1ccccc1-n1c(C(C)N2CCN(C(=O)COc3ccc(Cl)cc3)CC2)nc2ccccc2c1=O (centres undefined) [Erastin],-0.715,0.984,0.544,-0.436
CCNC(=O)C[C@@H]1N=C(c2ccc(Cl)cc2)c2cc(OC)ccc2-n2c(C)nnc21,-5.09,-2.4,-5.92,-0.945
CN1C(=O)CCS(=O)(=O)C1c1ccc(Cl)cc1 (centres undefined) [Chlormezanone],0.551,0.114,0.43,4.24
CC(C)(C)c1cc(C=C(C#N)C#N)cc(Br)c1O,1.29,1.32,0.43,1.28
CCCCCCCCCCCCCCCC[n+]1ccccc1 [Cetylpyridinium Chloride],-14.7,-4.13,-2.76,-1.03
O=[N+]([O-])c1ncc[nH]1 [Azomycin],0.142,0.271,-0.0753,0.596
Cc1cc(C(C#N)c2ccc(Cl)cc2)c(Cl)cc1NC(=O)c1cc(I)cc(I)c1O (centres undefined) [Closantel Sodium],-0.0902,1.48,0.81,0.753
Cc1cccc(C)c1NC(=O)CN1CCCC1=O [Nefiracetam],0.505,0.161,0.621,-0.481
c1ccc2c(c1)Nc1ccccc1S2 [Phenothiazine],-0.144,0.29,-0.0837,0.623
C[C@@]12N[C@@H](Cc3ccccc31)c1ccccc12 [(-)-MK 801 Maleate],0.614,0.338,-0.335,-0.269
CN(CC[C@H](N)CC(=O)N[C@@H]1C=C[C@@H](n2ccc(N)nc2=O)O[C@H]1C(=O)O)C(=N)N [Blasticidin S HCl],-12,-5.75,-10.3,-0.979
COc1ccc(CC2NCCc3cc(OC)c(OC)cc32)cc1OC (centres undefined) [Tetrahydropapaverine HCl],0.443,1.15,0.259,0.254
CC1=C(O)C(=O)C=C2C1=CC=C1[C@@]2(C)CC[C@@]2(C)[C@@H]3C[C@](C)(C(=O)O)CC[C@]3(C)CC[C@]12C [Celastrol],-3.01,-1.67,-4.26,-0.459
CC(C)(C)[C@]1(O)CC2OC(=O)CC23C(=O)OC2OC(=O)[C@H](O)C231 (some centres undefined) [Bilobalide],0.391,0.0272,0.188,1.84

# A few values from the list:
# For total neurite length per nucleus (z-score) [2], C[C@@]12N[C@@H](Cc3ccccc31)c1ccccc12 [(-)-MK 801 Maleate] has 0.338
# For nucleus area z-score [1], O=[N+]([O-])O[C@@H]1CO[C@H]2[C@@H]1OC[C@@H]2O [Isosorbide Mononitrate] has 0.374
# For nucleus roundness z-score [3], CCNC(=O)C[C@@H]1N=C(c2ccc(Cl)cc2)c2cc(OC)ccc2-n2c(C)nnc21 has -5.92
# For nucleus roundness z-score [3], Cc1cccc(C)c1NC(=O)CN1CCCC1=O [Nefiracetam] has 0.621
